For 89 compounds, activity change, negative = inhibition results are on record in PubChem BioAssay AID651803 (National Center for Advancing Translational Sciences (NCATS), 2012).

Sequences of proteins named here, by UniProt entry; tags and fusion partners are left off. A change or cut given only in a name is not applied to a line headed by its entry.
UniProt P11308: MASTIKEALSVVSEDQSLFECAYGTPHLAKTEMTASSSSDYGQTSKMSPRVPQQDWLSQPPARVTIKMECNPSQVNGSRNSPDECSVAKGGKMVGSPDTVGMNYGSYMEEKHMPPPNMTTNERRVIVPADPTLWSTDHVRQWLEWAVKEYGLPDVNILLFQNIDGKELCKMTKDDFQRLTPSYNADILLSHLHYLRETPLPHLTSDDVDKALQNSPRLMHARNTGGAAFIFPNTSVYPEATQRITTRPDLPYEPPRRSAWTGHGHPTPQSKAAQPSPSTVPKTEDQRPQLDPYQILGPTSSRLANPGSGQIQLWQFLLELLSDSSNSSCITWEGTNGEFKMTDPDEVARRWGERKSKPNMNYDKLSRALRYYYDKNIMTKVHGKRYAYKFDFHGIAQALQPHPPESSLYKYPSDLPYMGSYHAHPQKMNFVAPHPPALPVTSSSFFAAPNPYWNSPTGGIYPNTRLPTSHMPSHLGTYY

Molecules are shown by their SMILES. Out of some 1,200 compounds screened, fewer than 10 were called active. The call rests on the fitted dose curve; in most records, active means well fitted curve in the direction sought with a large enough effect; inconclusive means small, poorly fitted or top-dose-only effect, or another doubt; inactive means no such curve, though single readings can be large or run the other way. Some of the results follow.

The assay deals with Transcriptional regulator ERG (Homo sapiens) (UniProt P11308). The assay can be described thus: qHTS for Small Molecule Inhibitors of the ERG Ets/DNA interaction: TR assay against cherry picks. Further: % of control where 0% means no effect. The settings on record: ERG Ets domain-DNA fluorescence polarization, Texas red probe; at 154 µM (top of the series). An outline of the steps:
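Polarization read sequentially for fluorescein (ex 480/em 535 nm) and Texas red (ex 555/em 632 nm) probes, 5 nM and 100 nM solutions, displaced from His-ERG Ets domain (1 uM solution), pH 7.5 Tris/KCl/EDTA/DTT buffer.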
As to `O=C(Nc1ccc(-n2cnnn2)cc1)C1CCCCC1`, the activity change, negative = inhibition is inactive: -1.29%.

Consider `CC1(C)C=C2C(=NN(c3ccccc3)C(N)=C2C#N)CO1`, for which the activity change, negative = inhibition was inactive: -5.68%.

For `COc1c2c(c(CCC(=O)O)c3c1C=CC(C)(C)O3)OC(C)(C)C=C2`, the activity change, negative = inhibition was inactive: 0.0019%.

With `Cc1ccc(C(=C2C3C=CC2C2C(=O)NC(=O)C32)c2ccc(C)cc2)cc1` (centres undefined), the activity change, negative = inhibition is inactive: -2.25%.

`COc1cc(SC)ccc1C(=O)NC(C)C`: the activity change, negative = inhibition was inactive: 2.03%.

Regarding `CCCC(=O)Nc1nc2c(C)c(Cl)ccc2s1`, the activity change, negative = inhibition was inactive: 0.396%.

For `NS(=O)(=O)c1ccc(NC(=O)/C(=C/c2ccncc2)NC(=O)c2ccccc2)cc1`, the activity change, negative = inhibition is inactive: 3.48%.

As to `O=S(=O)(c1ccccc1)N1CCN(c2ncnc3scc(-c4ccccc4)c23)CC1`, the activity change, negative = inhibition is inactive: 2.44%.

Consider `O=C(NC1CCN(S(=O)(=O)c2ccccc2C(F)(F)F)CC1)c1ccco1`, for which the activity change, negative = inhibition is inactive: -11.1%.

As to `CCOCC(=O)N1CCC(Cc2ccccc2)CC1`, the activity change, negative = inhibition is inactive: -6.54%.

`CC1(C)CC(=O)C2=C(C1)Nc1ccccc1NC2c1cccs1` (centres undefined): the activity change, negative = inhibition is inactive: 19.5%.

With `CCOC(=O)C1=C(C)c2ccccc2N(S(=O)(=O)C(F)(F)F)C1C(=O)OCC` (centres undefined), the activity change, negative = inhibition is inactive: -17.1%.

With `COc1cccc(OC)c1C(=O)Nn1c(-c2cccs2)nc2ccccc2c1=O`, the activity change, negative = inhibition is inactive: 1.79%.

Consider `O=C(Nc1ccccc1-c1ccccc1)C1CCCCC1`, for which the activity change, negative = inhibition was inactive: 9%.

As for `O=C(Nc1ccc(F)cc1F)NC1CC1`, the activity change, negative = inhibition was inactive: 23%.

In the case of `O=C(CCCN1C(=O)/C(=C\c2cccs2)SC1=S)Nc1cccc(C(=O)O)c1`, the activity change, negative = inhibition is inactive: -12.4%.

With `O=C(Nc1ccc(N2CCOCC2)cc1)c1ccc2nc(-c3ccco3)c(-c3ccco3)nc2c1`, the activity change, negative = inhibition was inactive: -17%.

With `Nc1nnc(-c2ccccc2F)s1`, the activity change, negative = inhibition was inactive: 1.46%.

Regarding `Cc1cccc(C(=O)Nc2ccc(C(=O)N3CCCCC3C)cc2)c1` (centres undefined), the activity change, negative = inhibition is inactive: -0.764%.

In the case of `CCOC(=O)C(NC(=O)CC(C)C)(Nc1sc2c(c1C(N)=O)CCCC2)C(F)(F)F` (centres undefined), the activity change, negative = inhibition is inactive: 1.6%.

For `Cc1[nH]c2ccc(F)cc2c1CCNC(=O)C1CCCCC1C(=O)OCC(F)(F)F` (centres undefined), the activity change, negative = inhibition is inactive: 4.99%.

Turning to `O=C(COC(=O)/C=C/c1ccc([N+](=O)[O-])cc1)NCc1cccs1`, the activity change, negative = inhibition was inactive: 5.97%.

Turning to `COc1ccc(C2CC(=O)C(C=NCCN3CCN(C(=S)Nc4ccccc4)CC3)=C(O)C2)cc1` (centres undefined), the activity change, negative = inhibition is inactive: -3.46%.

`COc1ccc(CC(=O)OCC(=O)Nc2cccnc2Cl)cc1OC`: the activity change, negative = inhibition was inactive: 4.98%.

For `Cc1ccc(/C=C2\SC(N3CCCCC3)=NC2=O)cc1`, the activity change, negative = inhibition was inactive: -1.4%.

For the compound `COc1ccc(-n2cnc3cc(C(=O)NC4CCCC4)ccc32)cc1`, the activity change, negative = inhibition is inactive: 6.09%.

As for `Cc1ccc2oc(-c3ccc(NC(=O)CC(C)C)cc3)nc2c1`, the activity change, negative = inhibition was inactive: -3.59%.

As to `CCCCOc1ccc(C(=O)NCCC(=O)NCCCC(=O)OCC)cc1`, the activity change, negative = inhibition is inactive: -1.46%.

`Cc1ccc(N(CC(=O)NCc2ccccc2)C(=O)CCC(=O)Nc2nccs2)cc1`: the activity change, negative = inhibition is inactive: -7.85%.

`Cc1ccc(NC(=O)CSc2nc3ccccc3c3nc(CCn4c(C)nc5ccccc54)nn23)cc1F`: the activity change, negative = inhibition was inactive: -12%.

Regarding `COC(=O)CSc1nnc(CNC(=O)c2ccc(S(=O)(=O)N3CCOCC3)cc2)n1C`, the activity change, negative = inhibition is inactive: 0.773%.

`Cc1ccc(CNC(=O)N[C@@H](Cc2ccccc2)C(=O)O)cc1`: the activity change, negative = inhibition is inactive: -1.01%.

`CN1CCC2(CC1)C1CN(C)CC=C1C(C#N)=C(N)C2(C#N)C#N` (centres undefined): the activity change, negative = inhibition is inactive: 1.38%.

For the compound `CCOC(=O)C1CN(S(=O)(=O)c2cc(OC)ccc2OC)C1`, the activity change, negative = inhibition was inactive: -3.41%.

Regarding `CN(C)c1ccc2c3c(ccc(N(C)C)c13)C(=O)OC2`, the activity change, negative = inhibition is inactive: 3.2%.

Consider `CC(=O)c1ccc(OCc2ccc(Oc3c(Cl)cccc3[N+](=O)[O-])cc2)cc1`, for which the activity change, negative = inhibition was inactive: 0.0583%.

Regarding `CCOC(=O)c1c(C)n(CCOc2ccccc2)c2ccc(O)cc12`, the activity change, negative = inhibition was inactive: 3.37%.

On to `CC(C)OCCCNC(=O)C1CCC(CNS(=O)(=O)c2ccccc2)CC1` (centres undefined), for which the activity change, negative = inhibition is inactive: 1.24%.

Turning to `COC(=O)c1cc(-c2ccc(Cl)cc2)n(-c2ccc(S(N)(=O)=O)cc2)n1`, the activity change, negative = inhibition was inactive: 2.99%.

On to `CC(C)Cn1c(SCC(=O)NCc2ccc(Cl)cc2)nnc1-c1cccc(S(=O)(=O)N2CCOCC2)c1`, for which the activity change, negative = inhibition was inactive: -11.2%.

`N#CC1=C(N)Oc2c(ccc3cccnc23)C1c1cccnc1` (centres undefined): the activity change, negative = inhibition is inactive: 0.537%.

`CCc1ccccc1NC(=O)c1nnn(-c2ccc(F)cc2)c1C`: the activity change, negative = inhibition is inactive: -15.7%.

Regarding `Cc1cc(C)c(NC(=O)Cn2c(=O)n(CCC(=O)N3CCc4ccccc4C3)c(=O)c3ccccc32)c(C)c1`, the activity change, negative = inhibition is inactive: -25.3%.

`O=C(/C=C/c1cccs1)N1CCN(Cc2ccc3c(c2)OCO3)CC1`: the activity change, negative = inhibition was inactive: 9.52%.

For the compound `CC1Cc2ccccc2N1CC(=O)Nc1ccc2c(c1)OCO2` (centres undefined), the activity change, negative = inhibition was inactive: -2.39%.

Consider `CC(C)CN1CCc2nc(Nc3ccc(F)cc3F)ncc2C1`, for which the activity change, negative = inhibition was inactive: -4.49%.

Turning to `COc1cc(NC(=O)c2noc(C)c2[N+](=O)[O-])c(OC)cc1Cl`, the activity change, negative = inhibition is inactive: -10.2%.

On to `NC(=NCCCCCCN=C(N)/N=C(\N)Nc1ccc(Cl)cc1)/N=C(\N)Nc1ccc(Cl)cc1`, for which the activity change, negative = inhibition is inactive: -2.89%.

As for `Cc1cc(Br)ccc1NC(=O)CN(C)C(=O)COc1cccc2c1OC(C)(C)C2`, the activity change, negative = inhibition was inactive: -1.51%.

Regarding `CCOc1ccccc1N(C)S(=O)(=O)c1ccc2[nH]cc(C(=O)N(CCOC)CCOC)c(=O)c2c1`, the activity change, negative = inhibition is inactive: -11%.

In the case of `O=C(c1ccccc1)c1ccc[nH]1`, the activity change, negative = inhibition was inactive: -4.34%.

Consider `CCCN(CCC)Cc1c(C(=O)N/N=C/c2cccs2)nnn1-c1nonc1N`, for which the activity change, negative = inhibition is inactive: 1.84%.

For `CC12CCC(=O)N1C(C(=O)NCCN1C(=O)S/C(=C\c3ccccc3Cl)C1=O)CS2` (centres undefined), the activity change, negative = inhibition is inactive: 0.927%.

For the compound `CCOC(=O)c1c(NC(=O)CN2C(=O)NC3(CCC(C)CC3)C2=O)sc(C)c1-c1ccc(C)cc1` (centres undefined), the activity change, negative = inhibition was inactive: 4.55%.

Regarding `CCOc1ccc(N(CC(=O)NCCc2ccc(Cl)cc2)S(=O)(=O)c2c(C)[nH]c(=O)[nH]c2=O)cc1`, the activity change, negative = inhibition was inactive: -12.2%.

As for `CC1(C)C(=O)NCCN1C(=O)c1ccc2nc(Cc3ccccc3F)oc2c1`, the activity change, negative = inhibition was inactive: -2.67%.

Consider `COc1ccc(-n2nc(C(=O)NCC(=O)Nc3cc(OC)ccc3OC)c3ccccc3c2=O)cc1`, for which the activity change, negative = inhibition is inactive: 20.2%.

Consider `COc1ccc(-c2nn3c(=O)cc(CN4CCN(C(=O)/C=C/c5ccccc5)CC4)nc3s2)cc1`, for which the activity change, negative = inhibition was inactive: -22%.

For the compound `CC1(C)C2CCC1(CS(=O)(=O)N1CCC(C(N)=O)CC1)C(=O)C2` (centres undefined), the activity change, negative = inhibition is inactive: 18.6%.

Regarding `O=C(COC(=O)c1cccc(-n2cnnn2)c1)c1ccccc1`, the activity change, negative = inhibition was inactive: -8.77%.

With `O=C(COC(=O)/C=C/c1cccc(C(F)(F)F)c1)NC1CCS(=O)(=O)C1` (centres undefined), the activity change, negative = inhibition was inactive: -22.4%.

Take `O=S(=O)(NCCNS(=O)(=O)c1ccc(F)cc1)c1ccc(F)cc1`: the activity change, negative = inhibition was inactive: 21.4%.

Regarding `Cc1cc2cc(CNC(=O)c3cccc([N+](=O)[O-])c3)ccc2[nH]1`, the activity change, negative = inhibition was inactive: 1.92%.

With `COC(=O)c1ccc(C2=NOC(C)(c3sc(-c4ccccc4)nc3C)C2)cc1` (centres undefined), the activity change, negative = inhibition was inactive: -5.17%.

With `Nc1c2ccccc2nc2ccccc12`, the activity change, negative = inhibition is inactive: -12.1%.

Consider `CCCCC1=NN(C(=O)c2ccco2)C(O)(C(F)(F)F)C1` (centres undefined), for which the activity change, negative = inhibition was inactive: -2.3%.

Consider `Cc1cc(S(=O)(=O)N2CCOCC2)ccc1OCC(=O)Nc1ccc(F)c(Cl)c1`, for which the activity change, negative = inhibition was inactive: 3.47%.

Turning to `COc1ccc(/C=N/NC(=O)c2ccc(Br)cc2)c(OC)c1`, the activity change, negative = inhibition was inactive: 0.107%.

Regarding `COc1ccccc1C(=O)Nn1c(-c2cccs2)nc2ccccc2c1=O`, the activity change, negative = inhibition was inactive: 2.95%.

For `O=C(CN1C(=O)NC2(CCCC2)C1=O)NNC(=O)c1ccc(Cl)cc1`, the activity change, negative = inhibition is inactive: -0.343%.

Consider `COc1cc(CCC(=O)Nc2ccc(Br)c(C(F)(F)F)c2)cc(OC)c1OC`, for which the activity change, negative = inhibition was inactive: 4.91%.

On to `Cc1cc(C)nc(N2C(=O)CC(Cc3ccc(Cl)cc3)C2=O)n1` (centres undefined), for which the activity change, negative = inhibition was inactive: -7.35%.

`CCc1ccccc1NC(=O)CSc1nnc(COc2ccccc2Cl)o1`: the activity change, negative = inhibition was inactive: -12.6%.

As for `Cc1cc(C)nc(N2CCCC(C(=O)Nc3ccc(F)cc3)C2)n1` (centres undefined), the activity change, negative = inhibition is inactive: -9.81%.

In the case of `C=CCC[C@H](Cc1ccc(F)cc1)C(=O)OC[C@@H](Cc1c[nH]c2ccccc12)NC(=O)[C@H](CC=C)CC(=O)N(CCO)Cc1ccccc1`, the activity change, negative = inhibition is inactive: -7.14%.

Turning to `CC(C)(CNC(=O)CC1C(=O)NCCN1Cc1cccc(F)c1)N1CCOCC1` (centres undefined), the activity change, negative = inhibition was inactive: 0.0185%.

Consider `COC(=O)c1ccsc1NC(=O)c1cccc(OC)c1`, for which the activity change, negative = inhibition was inactive: -16.4%.

With `CC(=O)c1cc(-c2ccccc2)n(CCC(=O)NC(C)(C)C)c1C`, the activity change, negative = inhibition was inactive: 0.0296%.

In the case of `COc1ccc(Oc2ccc(N/C=C3\CCCC3=O)cc2)cc1`, the activity change, negative = inhibition was inactive: 11.5%.

Turning to `O=C(Oc1ccc(Br)cc1)c1n[nH]c(=O)c2ccccc12`, the activity change, negative = inhibition was inactive: 1.69%.

Turning to `COc1ccc(OCCCC(=O)Nc2cccc(C(C)=O)c2)cc1`, the activity change, negative = inhibition was inactive: -4.19%.

In the case of `O=c1o[nH]c(-c2ccccc2)c1-c1ccccc1`, the activity change, negative = inhibition is inactive: -5.75%.

Consider `Cc1ccc(C(=O)NC(=S)Nc2ccc(NC(=O)c3cccc(Cl)c3)cc2)cc1`, for which the activity change, negative = inhibition is inactive: -1.07%.

On to `COc1ccc(S(=O)(=O)N2CC(C)OC(C)C2)cc1C(=O)N1CCCCC1` (centres undefined), for which the activity change, negative = inhibition was inactive: 3.8%.

With `Nn1c(Cc2ccccc2)nc2sc3c(c2c1=O)CCC3`, the activity change, negative = inhibition was inactive: 5.36%.

Regarding `Cc1cc(/C=C2\C(=N)N3N=C(C(C)C)SC3=NC2=O)c(C)n1-c1ccccc1`, the activity change, negative = inhibition was inactive: -6.98%.

In the case of `O=c1[nH]cc(S(=O)(=O)Nc2ccc3c(c2)OCO3)c(=O)[nH]1`, the activity change, negative = inhibition was inactive: 5.59%.

Consider `CCOC(=O)C1CCC(CN(Cc2ccccc2C)S(=O)(=O)c2ccc([N+](=O)[O-])cc2)CC1` (centres undefined), for which the activity change, negative = inhibition was inactive: -8.45%.

`Cc1ccc(NS(=O)(=O)c2ccc(CCC(=O)NCCCOC(C)C)cc2)cc1`: the activity change, negative = inhibition was inactive: -2.3%.
